In patent publication US20070101447A1:
Residue numbers refer to the chain shown, from its start. In names and notes the source's numbering stands. These are yes or no findings as the source states them, for the method shown. Binding seen in cells or lysates may run through a third protein. Some entries that bind do so weakly or less than the wild type. Sequences can lack the tags named with a protein.

Sequences of proteins named here, by UniProt entry; tags and fusion partners are left off.
UniProt P04792: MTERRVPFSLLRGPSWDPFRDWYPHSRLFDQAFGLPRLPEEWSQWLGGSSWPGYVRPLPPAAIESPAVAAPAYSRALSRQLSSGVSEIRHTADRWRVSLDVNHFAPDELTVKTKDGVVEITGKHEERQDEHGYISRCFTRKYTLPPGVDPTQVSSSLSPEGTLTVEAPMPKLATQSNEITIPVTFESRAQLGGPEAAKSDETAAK

B1: EGFP-tagged HSP22 wild type, Q5RAB0 1-196 (protein, not shown: large carriers)
chain: MADGQMPFSCHYPSRLRRDPFRDSPLSSRLLDDGFGMDPFPDDLTASWPDWALPRLSSAWPGTLRSGMVPRGPTATARFGVPAEGRTPPPFPGEPWKVCVNVHSFKPEELMVKTKDGYVEVSGKHEEKQQEGGIVSKNFTKKIQLPAEVDPVTVFASLSPEGLLIIEAPQVPPYSTFGESSFNNELPQDSQEVTCT
B2: EGFP-tagged HSP22 K141N mutant (protein, not shown: large carriers)
chain: B1 chain with K141N
B3: EGFP-tagged HSP22 K141E mutant (protein, not shown: large carriers)
chain: B1 chain with K141E

Columns and labels:
[1] = molecular target: HSP27 containing V5 and HIS6 epitope tags (human), P04792; test: co-immunoprecipitation with anti-EGFP antibody from co-transfected HEK293T cells, Western blot; settings: remark: other sources report otherwise
[2] = molecular target: HSP27 containing V5 and HIS6 epitope tags (human) (UniProt P04792); test: as above

| binding [1] | binding [2] | Binder |
| --- | --- | --- |
| binds | – | B1 |
| – | binds | B2 |
| – | binds | B3 |
